Measurements as given in the supplement of paper PMC10849652.
The other results are listed elsewhere or left out.

The chains behind the UniProt entries cited, without tags or fusion partners. Where a name states a change or a piece, a line headed by the entry shows the natural chain unless it says otherwise.
UniProt P61803: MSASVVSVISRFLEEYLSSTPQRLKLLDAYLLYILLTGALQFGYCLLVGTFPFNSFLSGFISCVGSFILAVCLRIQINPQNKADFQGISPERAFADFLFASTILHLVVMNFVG
UniProt P0CG12: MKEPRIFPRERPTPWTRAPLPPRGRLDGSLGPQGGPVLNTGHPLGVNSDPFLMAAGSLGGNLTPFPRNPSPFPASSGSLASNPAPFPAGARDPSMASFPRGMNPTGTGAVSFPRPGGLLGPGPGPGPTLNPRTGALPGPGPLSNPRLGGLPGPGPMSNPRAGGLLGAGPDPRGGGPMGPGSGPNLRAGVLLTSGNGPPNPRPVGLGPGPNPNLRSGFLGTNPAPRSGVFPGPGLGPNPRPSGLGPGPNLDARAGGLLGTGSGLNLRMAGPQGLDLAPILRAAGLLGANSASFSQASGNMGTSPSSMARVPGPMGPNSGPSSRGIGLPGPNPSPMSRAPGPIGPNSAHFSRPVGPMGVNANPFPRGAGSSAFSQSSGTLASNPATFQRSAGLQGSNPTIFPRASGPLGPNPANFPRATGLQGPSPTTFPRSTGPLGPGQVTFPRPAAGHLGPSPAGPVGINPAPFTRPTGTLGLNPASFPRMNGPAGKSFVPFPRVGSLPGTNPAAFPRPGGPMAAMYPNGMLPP
UniProt P51397: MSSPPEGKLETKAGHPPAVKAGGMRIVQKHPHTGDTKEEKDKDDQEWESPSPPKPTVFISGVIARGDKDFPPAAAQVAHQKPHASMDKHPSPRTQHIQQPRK
UniProt Q9H773: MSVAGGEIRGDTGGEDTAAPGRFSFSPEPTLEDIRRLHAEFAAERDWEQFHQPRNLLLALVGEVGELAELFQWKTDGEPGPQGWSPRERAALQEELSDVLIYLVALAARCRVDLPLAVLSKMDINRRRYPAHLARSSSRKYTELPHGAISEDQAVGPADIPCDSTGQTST
UniProt P27707: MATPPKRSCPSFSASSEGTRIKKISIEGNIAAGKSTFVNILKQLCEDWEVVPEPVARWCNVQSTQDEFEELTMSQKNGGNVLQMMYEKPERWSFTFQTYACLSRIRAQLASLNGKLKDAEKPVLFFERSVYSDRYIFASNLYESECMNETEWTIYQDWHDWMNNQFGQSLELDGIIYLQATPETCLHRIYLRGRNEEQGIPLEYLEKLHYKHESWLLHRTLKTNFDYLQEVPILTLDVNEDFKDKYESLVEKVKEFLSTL
UniProt Q96GQ7: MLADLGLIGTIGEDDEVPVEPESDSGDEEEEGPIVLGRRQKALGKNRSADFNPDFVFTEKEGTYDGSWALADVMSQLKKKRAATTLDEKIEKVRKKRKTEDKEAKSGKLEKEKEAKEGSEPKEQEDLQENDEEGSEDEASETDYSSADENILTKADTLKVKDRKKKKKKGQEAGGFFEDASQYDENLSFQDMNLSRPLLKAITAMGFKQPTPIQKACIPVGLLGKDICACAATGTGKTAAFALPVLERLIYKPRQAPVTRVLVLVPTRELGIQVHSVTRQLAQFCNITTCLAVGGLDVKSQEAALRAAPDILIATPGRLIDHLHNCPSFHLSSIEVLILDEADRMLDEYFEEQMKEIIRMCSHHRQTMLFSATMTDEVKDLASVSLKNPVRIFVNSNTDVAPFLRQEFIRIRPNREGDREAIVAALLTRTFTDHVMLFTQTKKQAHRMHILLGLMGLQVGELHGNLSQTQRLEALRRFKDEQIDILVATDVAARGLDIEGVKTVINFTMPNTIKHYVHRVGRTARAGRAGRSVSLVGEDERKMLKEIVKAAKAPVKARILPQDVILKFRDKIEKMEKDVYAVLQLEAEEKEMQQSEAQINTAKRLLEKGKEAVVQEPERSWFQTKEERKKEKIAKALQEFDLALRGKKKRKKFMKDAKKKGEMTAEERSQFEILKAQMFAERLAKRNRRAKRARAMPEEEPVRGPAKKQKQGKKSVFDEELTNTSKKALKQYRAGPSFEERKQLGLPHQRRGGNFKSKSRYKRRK
UniProt Q9NUU7: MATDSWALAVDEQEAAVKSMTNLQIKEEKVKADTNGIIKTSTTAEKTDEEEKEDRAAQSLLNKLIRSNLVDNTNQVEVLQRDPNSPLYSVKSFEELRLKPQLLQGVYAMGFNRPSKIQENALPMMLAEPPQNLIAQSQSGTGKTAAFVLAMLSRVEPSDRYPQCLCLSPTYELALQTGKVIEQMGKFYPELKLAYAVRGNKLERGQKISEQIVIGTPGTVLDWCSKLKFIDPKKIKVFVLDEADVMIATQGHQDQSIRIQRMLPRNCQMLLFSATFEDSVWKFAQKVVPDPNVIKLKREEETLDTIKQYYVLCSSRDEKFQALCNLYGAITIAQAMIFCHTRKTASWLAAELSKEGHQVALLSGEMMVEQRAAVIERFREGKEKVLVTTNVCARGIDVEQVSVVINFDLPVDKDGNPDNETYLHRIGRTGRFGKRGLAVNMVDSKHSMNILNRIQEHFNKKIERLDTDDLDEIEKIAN
UniProt Q9Y6V7: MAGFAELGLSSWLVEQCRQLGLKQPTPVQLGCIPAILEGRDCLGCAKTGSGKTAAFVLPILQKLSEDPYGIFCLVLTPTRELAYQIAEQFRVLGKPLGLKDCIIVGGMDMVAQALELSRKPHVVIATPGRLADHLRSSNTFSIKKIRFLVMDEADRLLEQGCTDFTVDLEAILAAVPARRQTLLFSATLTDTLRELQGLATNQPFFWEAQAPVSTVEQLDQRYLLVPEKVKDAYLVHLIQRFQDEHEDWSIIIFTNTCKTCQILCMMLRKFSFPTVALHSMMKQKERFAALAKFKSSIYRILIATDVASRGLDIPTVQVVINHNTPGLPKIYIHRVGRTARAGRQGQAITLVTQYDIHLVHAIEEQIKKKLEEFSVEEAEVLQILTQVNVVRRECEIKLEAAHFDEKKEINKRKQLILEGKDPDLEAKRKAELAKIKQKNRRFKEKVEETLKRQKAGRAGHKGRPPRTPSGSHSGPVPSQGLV

How the values were obtained:
Assay in all cases: log2 fold change, soluble protein after heating vs DMSO (PISA); higher = thermal stabilisation; K562 lysate, 10 uM; active = over 0.2 and 3.5 SD of the protein, either way, in both replicates (recomputed)
alvocidib = compound: CN1CC[C@H](c2c(O)cc(O)c3c(=O)cc(-c4ccccc4Cl)oc23)[C@H](O)C1 [alvocidib]
Method in brief: (§1)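 Values give the log-two fold change in thermal stability against solvent controls, from duplicates. Crude K562 extract at 1 mg/mL protein, made by dounce homogenisation in PBS pH 7.4 with 1 mM MgCl2, was treated with 10 μM compound for 30 min. After 3 min heating across 48°C-58°C, aliquots were pooled, adjusted to 0.5% NP-40 at 4°C and centrifuged at 21,000xg for 90 min. The supernatant was measured by TMTpro 16plex LC-MS/MS with channel sums equalised.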

Tubastatin A = compound: CN1CCc2c(c3ccccc3n2Cc2ccc(C(=O)NO)cc2)C1 [Tubastatin A]
Method in brief: as §1

[1] = compound: CNC(=O)C1=CC=CC=C1NC2=NC(=NC=C2Cl)NC3=C(C=C(C=C3)N4CCOCC4)OC
Method in brief: as §1

defactinib = compound: CNC(=O)c1ccc(Nc2ncc(C(F)(F)F)c(NCc3nccnc3N(C)S(C)(=O)=O)n2)cc1 [defactinib]
Method in brief: as §1

[2] = compound: CNc1nc(-c2ccc3c(N)n[nH]c3c2)cc(N2C[C@@H](C(=O)NC3CCCCC3)CC[C@H]2C)n1
Method in brief: as §1

encorafenib = compound: COC(=O)N[C@@H](C)CNc1nccc(-c2cn(C(C)C)nc2-c2cc(Cl)cc(NS(C)(=O)=O)c2F)n1 [encorafenib]
Method in brief: as §1

[3] = compound: COC(=O)[C@H](CCSC)NC(=O)C1=C(C=C(C=C1)NC[C@H](CS)N)C2=CC=CC=C2
Method in brief: as §1

alisertib = compound: COc1cc(Nc2ncc3c(n2)-c2ccc(Cl)cc2C(c2c(F)cccc2OC)=NC3)ccc1C(=O)O [alisertib]
Method in brief: as §1

[4] = compound: COc1cc2nc(-c3cc(F)ccc3O)nc(N[C@@H]3CNC[C@H]3C(C)(C)O)c2cc1OC
Method in brief: as §1

gefitinib = compound: COc1cc2ncnc(Nc3ccc(F)c(Cl)c3)c2cc1OCCCN1CCOCC1 [gefitinib]
Method in brief: as §1

lapatinib = compound: CS(=O)(=O)CCNCc1ccc(-c2ccc3ncnc(Nc4ccc(OCc5cccc(F)c5)c(Cl)c4)c3c2)o1 [lapatinib]
Method in brief: as §1

pictilisib = compound: CS(=O)(=O)N1CCN(Cc2cc3nc(-c4cccc5[nH]ncc45)nc(N4CCOCC4)c3s2)CC1 [pictilisib]
Method in brief: as §1

crizotinib = compound: C[C@@H](Oc1cc(-c2cnn(C3CCNCC3)c2)cnc1N)c1c(Cl)ccc(F)c1Cl [crizotinib]
Method in brief: as §1

[5] = compound: C[C@H](C1=CC=C(C=C1)C(=O)NC2=C3C=CNC3=NC=C2)N
Method in brief: as §1

duvelisib = compound: C[C@H](Nc1ncnc2nc[nH]c12)c1cc2cccc(Cl)c2c(=O)n1-c1ccccc1 [duvelisib]
Method in brief: as §1

gandotinib = compound: Cc1cc(Nc2cc(CN3CCOCC3)c3nc(C)c(Cc4ccc(Cl)cc4F)n3n2)n[nH]1 [gandotinib]
Method in brief: as §1

tozasertib = compound: Cc1cc(Nc2cc(N3CCN(C)CC3)nc(Sc3ccc(NC(=O)C4CC4)cc3)n2)n[nH]1 [tozasertib]
Method in brief: as §1

doramapimod = compound: Cc1ccc(-n2nc(C(C)(C)C)cc2NC(=O)Nc2ccc(OCCN3CCOCC3)c3ccccc23)cc1 [doramapimod]
Method in brief: as §1

bafetinib = compound: Cc1ccc(NC(=O)c2ccc(CN3CC[C@H](N(C)C)C3)c(C(F)(F)F)c2)cc1Nc1nccc(-c2cncnc2)n1 [bafetinib]
Method in brief: as §1

[6] = compound: Cc1cccc(CC(=O)N2CCc3c2ccc(-c2cn(C)c4ncnc(N)c24)c3F)n1
Method in brief: as §1

Measured: log2 fold change

DAD1 (UniProt P61803)
inactive: alvocidib -0.086 | Tubastatin A 0.042 | [1] 0.047 | defactinib 0.196 | [2] 0.033 | encorafenib 0.159 | [3] -0.149 | alisertib 0.086 | [4] -0.076 | gefitinib -0.035 | lapatinib -0.064 | pictilisib 0.069 | crizotinib -0.068 | [5] -0.102 | duvelisib 0.164 | gandotinib 0.022 | tozasertib -0.04 | doramapimod 0.083 | bafetinib -0.126 | [6] 0.055

DERPC (UniProt P0CG12)
inactive: alvocidib 0.031 | Tubastatin A 0.157 | [1] -0.015 | defactinib 0.135 | [2] 0.072 | encorafenib 0.053 | [3] 0.023 | alisertib 0.059 | [4] -0.074 | gefitinib -0.16 | lapatinib 0.142 | pictilisib 0.017 | crizotinib 0.273 | [5] 0.041 | duvelisib -0.027 | gandotinib 0.094 | tozasertib -0.002 | doramapimod 0.377 | bafetinib -0.133 | [6] -0.021

DAP (UniProt P51397)
inactive: alvocidib -0.025 | Tubastatin A 0.043 | [1] 0.007 | defactinib 0.031 | [2] 0.019 | encorafenib -0.017 | [3] -0.035 | alisertib -0.019 | [4] 0.018 | gefitinib -0.071 | lapatinib -0.009 | pictilisib -0.086 | crizotinib 0.032 | [5] -0.019 | duvelisib 0.031 | gandotinib 0.065 | tozasertib -0.002 | doramapimod -0.025 | bafetinib -0.055 | [6] 0.042

DCTPP1 (UniProt Q9H773)
inactive: alvocidib 0.023 | Tubastatin A 0.082 | [1] 0.024 | defactinib 0.016 | [2] 0.052 | encorafenib -0.025 | [3] -0.063 | alisertib 0.04 | [4] 0.013 | gefitinib -0.036 | lapatinib 0.007 | pictilisib -0.088 | crizotinib 0.013 | [5] 0.036 | duvelisib 0.088 | gandotinib -0.04 | tozasertib 0.127 | doramapimod 0.048 | bafetinib -0.008 | [6] 0.025

DCK (UniProt P27707)
inactive: alvocidib 0.021 | Tubastatin A -0.007 | [1] 0.052 | defactinib -0.02 | [2] 0.038 | encorafenib -0.049 | [3] 0.041 | alisertib -0.025 | [4] -0.021 | gefitinib -0.011 | lapatinib -0.002 | pictilisib 0.168 | crizotinib 0.01 | [5] 0.115 | duvelisib 0.016 | gandotinib -0.038 | tozasertib -0.034 | doramapimod -0.033 | bafetinib 0.104 | [6] -0.09

DDX27 (UniProt Q96GQ7)
inactive: alvocidib -0.016 | Tubastatin A -0.005 | [1] -0.009 | defactinib 0.01 | [2] 0.013 | encorafenib 0.018 | [3] 0.011 | alisertib -0.014 | [4] -0.005 | gefitinib 0.021 | lapatinib -0.004 | pictilisib -0.021 | crizotinib -0.049 | [5] 0.015 | duvelisib -0.011 | gandotinib -0.015 | tozasertib 0 | doramapimod -0.001 | bafetinib -0.006 | [6] 0.041

DDX19A (UniProt Q9NUU7)
inactive: alvocidib 0.044 | Tubastatin A 0.006 | [1] 0.027 | defactinib -0.012 | [2] 0.02 | encorafenib 0.01 | [3] 0.064 | alisertib -0.019 | [4] 0.013 | gefitinib 0.014 | lapatinib 0.023 | pictilisib 0.022 | crizotinib -0.008 | [5] 0.016 | duvelisib -0.017 | gandotinib -0.143 | tozasertib 0.02 | doramapimod -0.001 | bafetinib -0.006 | [6] -0.064

DDX49 (UniProt Q9Y6V7)
inactive: alvocidib -0.026 | Tubastatin A -0.007 | [1] 0.028 | defactinib 0.022 | [2] -0.09 | encorafenib 0.004 | [3] 0.006 | alisertib 0.009 | [4] -0.012 | gefitinib -0.078 | lapatinib -0.01 | pictilisib -0.069 | crizotinib 0.027 | [5] -0.001 | duvelisib 0.158 | gandotinib -0.04 | tozasertib 0.008 | doramapimod -0.023 | bafetinib -0.027 | [6] 0.039
